Measurements reported in patent US20260191954A1, “COMPOSITIONS AND METHODS FOR NEOADJUVANT TREATMENT IN CANCER” (INNATE PHARMA, priority 2022, published 2026).
Results are given in words; binding and its absence hold for the method and conditions named. Some results given as binding are weak or reduced against the parent protein; the word gives no strength.

Target: T1, soluble CD39 in samples from human patients (human) (UniProt P49961)
T1 sequence: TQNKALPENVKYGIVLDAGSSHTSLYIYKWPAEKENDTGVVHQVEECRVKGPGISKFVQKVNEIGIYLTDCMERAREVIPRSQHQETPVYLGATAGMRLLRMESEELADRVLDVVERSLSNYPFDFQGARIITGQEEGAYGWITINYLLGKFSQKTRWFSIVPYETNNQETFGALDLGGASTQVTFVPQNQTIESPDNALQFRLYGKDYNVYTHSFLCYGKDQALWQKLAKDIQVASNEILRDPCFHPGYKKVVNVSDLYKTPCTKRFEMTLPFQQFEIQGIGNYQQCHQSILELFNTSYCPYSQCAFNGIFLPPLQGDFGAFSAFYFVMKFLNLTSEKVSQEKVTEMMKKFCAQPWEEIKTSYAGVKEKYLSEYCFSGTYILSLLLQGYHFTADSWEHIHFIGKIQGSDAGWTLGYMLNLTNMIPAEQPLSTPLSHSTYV
Test: free soluble CD39 sandwich ELISA on patients' samples (capture antibody competes with IPH5201)

B1: IPH5201 (humanized anti-CD39 antibody having the respective heavy and light chain amino acid sequences of SEQ ID NOS: 10 and 11) (antibody, human IgG1, kappa, V domains shown)
VH: QVQLVQSGAEVKKPGASVKVSCKASGYTFTDYNMHWVRQAPGQRLEWIGYIVPLNGGSTFNQKFKGRATITVDTSARTAYMELSSLRSEDTAVYYCARGGTRFAYWGQGTLVTVSS
VL: DIVMTQSPDSLAVSLGERATINCRASESVDNFGVSFMYWFQQKPGQPPKLLIYGASNQGSGVPDRFSGSGSGTDFTLTISSLQAEDVAVYYCQQTKEVPYTFGGGTKVEIKR
  binding: binds
